These are yes or no findings as the source states them, for the method shown. Binding calls can cover weak binding; strength is not graded here. Each block holds one molecule with its values, some of them ahead of it.
Key:
Test in all cases: cryo-EM structure; single-particle cryo-EM of NPCs on the nuclear envelope from X. laevis oocytes; IR subunit reconstructed at 4.2 Å average resolution (local up to 3.8 Å); known and AlphaFold-predicted models docked into the map
[1] = biological target: T1, NDC1 (X. laevis (endogenous in oocytes)) (UniProt Q6AX31)
T1 sequence: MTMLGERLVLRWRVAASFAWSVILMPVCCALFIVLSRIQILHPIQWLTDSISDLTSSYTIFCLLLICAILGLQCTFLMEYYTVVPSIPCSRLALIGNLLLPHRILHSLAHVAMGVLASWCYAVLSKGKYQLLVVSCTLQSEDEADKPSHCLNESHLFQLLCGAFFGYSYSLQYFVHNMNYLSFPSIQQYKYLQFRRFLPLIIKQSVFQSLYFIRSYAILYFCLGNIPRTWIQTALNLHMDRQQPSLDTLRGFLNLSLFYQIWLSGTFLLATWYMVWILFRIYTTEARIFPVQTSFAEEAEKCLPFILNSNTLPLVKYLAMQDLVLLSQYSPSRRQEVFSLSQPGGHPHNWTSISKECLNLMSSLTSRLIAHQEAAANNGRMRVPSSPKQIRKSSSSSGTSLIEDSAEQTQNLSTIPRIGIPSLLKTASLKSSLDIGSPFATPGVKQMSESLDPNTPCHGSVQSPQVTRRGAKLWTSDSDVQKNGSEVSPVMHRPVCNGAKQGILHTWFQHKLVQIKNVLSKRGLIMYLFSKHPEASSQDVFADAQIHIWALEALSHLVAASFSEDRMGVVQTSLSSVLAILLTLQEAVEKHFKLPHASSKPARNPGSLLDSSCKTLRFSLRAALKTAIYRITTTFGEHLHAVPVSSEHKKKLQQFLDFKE

Sequences of proteins named here, by UniProt entry; tags and fusion partners are left off. A change or cut given only in a name is not applied to a line headed by its entry.
UniProt Q7ZWL0: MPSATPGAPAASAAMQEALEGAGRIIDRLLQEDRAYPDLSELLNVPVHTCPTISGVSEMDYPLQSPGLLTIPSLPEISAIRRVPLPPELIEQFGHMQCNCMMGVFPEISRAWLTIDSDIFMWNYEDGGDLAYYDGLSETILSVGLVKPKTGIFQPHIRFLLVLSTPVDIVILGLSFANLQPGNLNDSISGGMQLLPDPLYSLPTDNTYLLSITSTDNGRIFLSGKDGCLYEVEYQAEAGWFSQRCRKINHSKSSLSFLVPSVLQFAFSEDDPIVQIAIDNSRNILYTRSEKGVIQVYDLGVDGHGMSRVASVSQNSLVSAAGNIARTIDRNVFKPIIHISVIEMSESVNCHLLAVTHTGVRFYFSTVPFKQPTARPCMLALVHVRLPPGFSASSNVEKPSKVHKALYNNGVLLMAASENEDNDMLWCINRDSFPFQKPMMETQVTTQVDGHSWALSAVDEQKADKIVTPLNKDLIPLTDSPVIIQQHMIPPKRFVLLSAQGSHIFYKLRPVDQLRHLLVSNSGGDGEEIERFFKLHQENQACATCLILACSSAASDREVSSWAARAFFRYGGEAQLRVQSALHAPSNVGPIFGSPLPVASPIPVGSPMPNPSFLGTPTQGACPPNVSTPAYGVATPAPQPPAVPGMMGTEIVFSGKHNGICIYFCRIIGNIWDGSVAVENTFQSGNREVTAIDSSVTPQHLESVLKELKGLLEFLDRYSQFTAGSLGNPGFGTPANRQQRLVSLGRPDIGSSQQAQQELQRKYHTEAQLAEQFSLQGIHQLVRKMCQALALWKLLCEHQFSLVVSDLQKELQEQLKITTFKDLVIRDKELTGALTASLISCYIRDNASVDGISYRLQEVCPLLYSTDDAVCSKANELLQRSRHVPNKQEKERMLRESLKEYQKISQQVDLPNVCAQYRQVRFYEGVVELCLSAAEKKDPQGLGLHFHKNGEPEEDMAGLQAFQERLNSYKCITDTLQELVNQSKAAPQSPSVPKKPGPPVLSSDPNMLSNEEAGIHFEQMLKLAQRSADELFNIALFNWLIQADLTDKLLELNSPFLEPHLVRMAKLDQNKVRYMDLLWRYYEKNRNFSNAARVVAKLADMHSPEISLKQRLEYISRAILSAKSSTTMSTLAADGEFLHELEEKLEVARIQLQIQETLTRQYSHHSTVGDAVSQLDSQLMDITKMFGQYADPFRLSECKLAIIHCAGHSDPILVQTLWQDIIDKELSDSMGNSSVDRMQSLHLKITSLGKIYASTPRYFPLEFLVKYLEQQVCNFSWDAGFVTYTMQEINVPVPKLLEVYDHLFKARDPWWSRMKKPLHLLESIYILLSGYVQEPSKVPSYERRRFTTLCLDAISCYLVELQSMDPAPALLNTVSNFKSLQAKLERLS

[2] = biological target: T2, Nup93 (X. laevis (endogenous in oocytes)) (UniProt Q7ZX96)
T2 sequence: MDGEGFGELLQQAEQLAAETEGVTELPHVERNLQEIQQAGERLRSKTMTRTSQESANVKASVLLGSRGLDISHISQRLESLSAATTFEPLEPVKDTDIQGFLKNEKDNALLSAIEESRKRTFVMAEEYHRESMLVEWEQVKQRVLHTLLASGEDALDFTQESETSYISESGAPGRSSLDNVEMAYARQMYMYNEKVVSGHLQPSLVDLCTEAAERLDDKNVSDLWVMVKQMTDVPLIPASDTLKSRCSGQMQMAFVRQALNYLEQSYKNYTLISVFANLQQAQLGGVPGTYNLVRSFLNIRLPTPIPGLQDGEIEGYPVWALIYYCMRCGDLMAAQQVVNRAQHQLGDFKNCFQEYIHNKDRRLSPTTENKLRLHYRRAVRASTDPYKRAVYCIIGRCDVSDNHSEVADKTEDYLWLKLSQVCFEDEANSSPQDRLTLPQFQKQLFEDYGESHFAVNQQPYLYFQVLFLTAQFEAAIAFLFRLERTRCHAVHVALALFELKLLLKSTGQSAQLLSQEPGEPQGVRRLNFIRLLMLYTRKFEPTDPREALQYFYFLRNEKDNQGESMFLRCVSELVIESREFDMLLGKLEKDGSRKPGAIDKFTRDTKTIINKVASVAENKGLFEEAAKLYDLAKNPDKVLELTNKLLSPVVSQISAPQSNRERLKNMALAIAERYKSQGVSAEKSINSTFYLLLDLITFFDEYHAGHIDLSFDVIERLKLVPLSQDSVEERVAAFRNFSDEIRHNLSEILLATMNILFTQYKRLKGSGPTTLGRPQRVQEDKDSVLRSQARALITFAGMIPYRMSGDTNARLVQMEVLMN

[3] = biological target: Nup188 (X. laevis (endogenous in oocytes))
[4] = biological target: channel nucleoporin hetero-trimer (Nup62/Nup58/Nup54) (X. laevis (endogenous in oocytes))

- binding [1]: binds
Molecule: ALADIN (X. laevis (endogenous in oocytes))

- binding [2]: binds
Molecule: Nup155 (from UniProt Q7ZWL0)

- binding [3]: binds
- binding [4]: binds
B1: Nup93 (protein, UniProt Q7ZX96 1-820)
chain: T2 sequence

From PMC9061766
